## Primary screen of a compound library

Mtb growth Cornell: 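Whole-cell assay for inhibitors of Mycobacterium tuberculosis growth, labelled Cornell in the record; the read-out is not stated. The concentration is filed as 10 mM, unlikely as a test dose, so the dose is not known. Higher means stronger inhibition (inferred from two other growth screens of the library). About 53,000 compounds were tested under these conditions; 1.7% (about 900) showed 50% or more at least once.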
Mtb heat-shock: 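Assay on Mycobacterium tuberculosis, filed only as a heat shock assay from Cornell; the read-out is not stated. The concentration is filed as 10 mM, unlikely as a test dose, so the dose is not known. Higher reads as stronger inhibition (inferred: compounds with an IC50 in retests scored well above the rest). About 69,000 compounds were tested under these conditions; 1.4% (about 930) showed 50% or more at least once.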

Results are given as percent effect.
The controls that fix the scale are not given in the record; negative values are as filed.
Compounds were drawn at random from those tested, without regard to their results.
A dash means the value is not listed here; it may have been measured.

| Compound | Mtb growth Cornell | Mtb heat-shock |
|---|---|---|
| `O=C(Cc1ccc(F)cc1)NCCNCc1cccc(O)c1` | 1.304 | -13.93 |
| `CCN1CCN(c2ccc(NC(C)c3nc(C(C)C)no3)c(C)c2)CC1` (configuration not stated) | 73.38 | 8.578 |
| `O=C(O)C(F)(F)F.O=C(O)C(F)(F)F.O=C(O)C(F)(F)F.[H][C@@]12CCN(c3ncccn3)[C@@]1([H])CCN2Cc1csc(C)n1` | 7.706 | -20.66 |
| `COC(CNC(=O)c1ccc[nH]1)c1cccc(Cl)c1` (configuration not stated) | - | -136 |
| `CCCC(=O)N1CCc2nc3cc(OC)c(OC)cc3c(=O)n2CC1` | - | -11.49 |
| `CC(Cn1cncc1-c1cnn(C2CCCCC2)c1)N1CCCCC1.Cl` (configuration not stated) | -3.197 | -19.7 |
| `CCCc1nc(CN(C)CC2CCN(CCO)CC2)no1` | -1.631 | -10.55 |
| `CC(C)(C#N)c1ccc(NS(=O)(=O)CC2CCCCO2)cc1` (configuration not stated) | 8.549 | -11.9 |
| `CCCNC(=O)c1nc2c(o1)CN(c1ncccn1)C2` | 29.6 | -2.755 |
| `O=C(NC1CC1)c1cccc(Oc2ccc3nncn3n2)c1` | -29.43 | -2.737 |
| `Cn1nccc1C1CCN(CC(=O)NCC2CC2)CC1` | - | -3.321 |
| `CCNC(=O)Cc1ccc(NC(=O)NC(CC)CC)cc1` | - | -10.33 |
| `Cc1nc2n(n1)CC(NCc1nc3ccccc3o1)CC2` (configuration not stated) | 5.67 | -0.4395 |
| `CN1CCN(C2CCN(Cc3ccc(Cl)s3)CC2)C1=O` | 10.85 | -23.09 |
| `Cc1cnc(C)c(N2CCN(Cc3ccc(C)c(C)c3)CC2)n1` | 9.853 | -45.33 |
| `Cc1nn(C)c(C)c1S(=O)(=O)NCCn1ccc(-c2cccs2)n1` | -2.587 | -25.61 |
| `CCc1nc(C(=O)N2CC(C(C)C)Nc3ccccc32)c[nH]1` (configuration not stated) | 11.38 | 11.91 |
| `Cn1cccc1C(=O)NCc1cnc2n1CCN(C(N)=O)CC2` | 23.95 | -29.61 |
| `CC(=O)N1CCN(C(=O)C(C)Nc2ccc3ncsc3c2)CC1` (configuration not stated) | -19.39 | -2.255 |
| `O=C1CNc2ncnc(N3CCN(Cc4ccccc4F)CC3)c2N1` | -2.658 | -44.76 |
| `CN(C)c1ccc(CNC(=O)NCCc2cn3ccccc3n2)cn1` | -4.88 | -21.66 |
| `CCc1ncc(CN2CCC(O)(c3ccccc3F)CC2)cn1` | 6.266 | 2.524 |
| `CC(C)N(CC(N)=O)C(=O)c1cnc(-c2ccc3c(c2)OCO3)s1` | -1.832 | -3.577 |
| `CC(c1ccco1)N(C)Cc1cccc(C(=O)Nc2nccn2C)c1` (configuration not stated) | 20.55 | 105 |
| `CC(C#N)CN(C)Cc1cc(Cl)cc2cccnc12` (configuration not stated) | 21.14 | -23.51 |
| `CCN1CCN(c2ncc(-c3cc(C)no3)c(-c3ccoc3C)n2)CC1` | 13.8 | 3.919 |
| `COc1ccccc1CC(C)(C)NC(=O)CNS(C)(=O)=O` | -30.21 | -13.65 |
| `[H][C@]12CC[C@]([H])(CN(c3cnccn3)C1)N(C(=O)c1c(C)noc1C)C2` | -7.966 | -7.98 |
| `CC(C)c1nnc(CN2CC(n3cccn3)C2)o1` | 8.514 | -11.91 |
| `CN(Cc1cccs1)C(=O)CN1CCCC(Cn2cncn2)C1` (configuration not stated) | - | 6.761 |
| `CCS(=O)(=O)N1CCC2(CN(c3cccc(F)c3)C(=O)CN2C)C1.O=C(O)C(F)(F)F` (configuration not stated) | -1.106 | -5.884 |
| `CN(C)C(=O)N1CCC2(CC1)C(=O)N(CC1CCOC1)c1ccccc12` (configuration not stated) | 20.24 | 4.06 |
| `O=C(O)C(F)(F)F.[H][C@@]12CCN(Cc3scnc3C)C[C@]1(C(=O)NC1CC1)CCO2` | -14.59 | -9.8 |
| `COCCOc1ccc(NC(=O)C2CC(=O)N(C3CC3)C2)cn1` (configuration not stated) | 30.29 | -7.395 |
| `Cc1cc(C)c2c(N3CCN(C(=O)N4CCOCC4)CC3)ncnc2n1` | -18.35 | -6.616 |
| `CC(C)OCCOCc1cccc(NC(=O)NCCn2ccnc2)c1` | 14.98 | -9.789 |
| `CCC/N=c1/c(NC(=O)NCCOC)c(O)oc2ccccc12` | -32.52 | -14.33 |
| `CNC(=O)c1cccc(NC(=O)NC(C)CCc2cccn2C)c1C` (configuration not stated) | -17.29 | 6.334 |
| `Cc1noc(C)c1CN1CCc2nn(C(C)C)c(=O)cc2C1` | 6.446 | -5.343 |
| `O=C(O)C(F)(F)F.[H][C@@]12CC(=O)N(CC(C)C)[C@@]1([H])CCN2Cc1cccc(C#N)c1` | 3.465 | -4.975 |
| `Cn1cc(C2CCCN2Cc2csc(-c3ccsc3)n2)cn1` (configuration not stated) | -10.01 | 15.56 |
| `O=C(O)C(F)(F)F.O=C(O)C(F)(F)F.[H][C@@]12COC[C@]1(C(=O)NCc1ccccn1)CN(Cc1cnn(C)c1)C2` | 35.73 | 4.765 |
| `CC(C)(C(=O)N1CCC(CS(N)(=O)=O)CC1)c1ccccc1F` | - | -4.492 |
| `Cc1noc(C)c1CCN1CCCC1c1nc2cc(F)ccc2[nH]1` (configuration not stated) | 26.56 | 9.92 |
| `COCCN(Cc1ccc(F)cc1Cl)C(=O)c1csnn1` | 16.64 | -26.08 |
| `CN(C)c1ccc(CCNC(=O)C2CCC(=O)N(C3CCCC3)C2)cc1` (configuration not stated) | 17.09 | -1.014 |
| `O=C(O)C(F)(F)F.O=C(O)C(F)(F)F.c1ccc(OCc2nnc3n2CCN(Cc2ccco2)C3)nc1` | 5.118 | 8.102 |
| `O=C(O)C(F)(F)F.O=C1COC2(CCN(CC3CC3)CC2)CN1c1cncnc1` | 23.43 | -40.49 |
| `Cc1cnn(CCCNCc2csc(COc3ccccc3)n2)c1` | 86.59 | 15.28 |
| `CC(C)(C)c1ncc(S(C)(=O)=O)c(C2CCCNC2)n1` (configuration not stated) | -4.067 | -0.0485 |
| `Cc1n[nH]c2c1C(c1ccc(O)cc1)SCC(=O)N2` (configuration not stated) | -8.345 | 21.73 |
| `CC(C)[C@@H]1CN(c2ncc(F)cn2)C[C@H]1NC(=O)N(C)C` | -5.937 | 4.121 |
| `Cc1cccc(C(=O)NCc2ccc(N3CCCCC3)nc2)n1` | - | 8.67 |
| `Cc1ccc(CN2CCCC(c3cncc(C)n3)C2)cn1` (configuration not stated) | - | -20.63 |
| `Cc1ncccc1C(=O)NC1CC(=O)N(CC(F)(F)F)C1` (configuration not stated) | -17.8 | -30.59 |
| `CCOCC(=O)N(Cc1ccccn1)Cc1ccccc1C` | -1.157 | -0.5575 |
| `Cc1cc2c(=O)n3c(nc2s1)CCN(C(=O)c1scnc1C)CC3` | 20.09 | -27.85 |
| `Cc1cc(NC2CCN(c3ccc(F)cc3)CC2)n2nc(C)cc2n1` | 39.2 | 11.63 |
| `[H][C@@]12CCCC[C@]1([H])CN(CC(C)n1cnc3ccccc31)CC2` (some centres not stated) | -2.022 | -13.09 |
| `O=C1NC2(CCN(Cc3ccccc3Cl)CC2)CC1c1ccccc1` (configuration not stated) | 14.32 | 7.387 |
| `Cc1cccc(OCCC(=O)NCC2CN(C)CCO2)c1C` (configuration not stated) | - | 2.869 |
| `COCCNC(=O)C1(c2ccc(C)c(OC)c2)CCCC1` | 3.076 | 4.247 |
| `COc1cccc2c1N(Cc1noc(C(C)(C)C)n1)CCC2` | 37.78 | -9.794 |
| `Fc1cnc(N2CCOCC3(CCCNC3)C2)nc1` (configuration not stated) | -7.363 | -6.387 |
| `Cc1nc(CN(C)C2CCN(CCCOc3ccccc3C)C2)no1` (configuration not stated) | - | 15.96 |
| `COc1cccc(-c2n[nH]cc2CNC2CCN(C(C)C)CC2)c1.Cl` | - | -15.59 |
| `[H][C@@]12CN(C(N)=O)C[C@]1([H])CN(C(=O)c1ccco1)C2` | - | -14.05 |
| `COc1ccccc1-n1nc(CC(C)C)nc1CSc1nnc(N)s1` | - | 0.1772 |
| `O=C(NCc1ccncc1)N1CCSCC1CCO` (configuration not stated) | -20.04 | -14.74 |
| `COC(=O)C1=C(C)N=C2SCC(=O)N2C1c1cnn(C)c1C` (configuration not stated) | 16.6 | 7.918 |
| `CCS(=O)(=O)N1CCCCC1c1nc(C(C)C)no1` (configuration not stated) | -27.15 | -9.915 |
| `Cc1ccccc1OC1CCN(CC(=O)Nc2c(C)nn(C)c2C)CC1` | 59.98 | -14.42 |
| `Cc1cc(CN(C)C(=O)NC2CCN(S(C)(=O)=O)CC2)no1` | -4.538 | 12.84 |
| `Cc1ccnc(N2CCCC(c3nccn3C(C)C)C2)n1` (configuration not stated) | -1.784 | -24.07 |
| `Cn1cc(C2CC(=O)NC23CCN(c2ncc(F)cn2)CC3)cn1` (configuration not stated) | -3.741 | -8.066 |
| `CC(C)c1csc(NC(=O)NC2CCCN(c3cnn(C)c3)C2)n1` (configuration not stated) | 42.87 | 19.92 |
| `Cc1ccccc1OCC1CCCN(C(=O)Cc2c[nH]c(=O)[nH]c2=O)C1` (configuration not stated) | -0.6398 | -5.914 |

The last 5 entries again:

{"compound": "Cc1cc(CN(C)C(=O)NC2CCN(S(C)(=O)=O)CC2)no1", "Mtb growth Cornell": -4.538, "Mtb heat-shock": 12.84}
{"compound": "Cc1ccnc(N2CCCC(c3nccn3C(C)C)C2)n1", "stereo": "configuration not stated", "Mtb growth Cornell": -1.784, "Mtb heat-shock": -24.07}
{"compound": "Cn1cc(C2CC(=O)NC23CCN(c2ncc(F)cn2)CC3)cn1", "stereo": "configuration not stated", "Mtb growth Cornell": -3.741, "Mtb heat-shock": -8.066}
{"compound": "CC(C)c1csc(NC(=O)NC2CCCN(c3cnn(C)c3)C2)n1", "stereo": "configuration not stated", "Mtb growth Cornell": 42.87, "Mtb heat-shock": 19.92}
{"compound": "Cc1ccccc1OCC1CCCN(C(=O)Cc2c[nH]c(=O)[nH]c2=O)C1", "stereo": "configuration not stated", "Mtb growth Cornell": -0.6398, "Mtb heat-shock": -5.914}

Data taken from ChEMBL document CHEMBL3988442, “University of Dundee, Small-Polar-MMV Screening Library” (2021).